Patent US10921311B2, “Fusions and method for detecting same” (JAPANESE FOUNDATION FOR CANCER RESEARCH, priority 2016, dated 2021)
At least one structure is not confirmed: it was looked up by name or label, or the drawing left a doubt.

System: PXN-BRAF fusion polypeptide
Test: Western blotting of MEK phosphorylation in PXN-BRAF fusion polypeptide-expressing cells treated with BRAF inhibitor
Type: cell-based
Conditions: PXN-BRAF-expressing Ba/F3 cell extract

## CC(=O)Nc1cccc(-n2c(=O)n(C3CC3)c(=O)c3c(Nc4ccc(I)cc4F)n(C)c(=O)c(C)c32)c1 [BRAF inhibitor, trametinib]
anti-MEK antibody, presence vs absence of treatment and among treatment concentrations
  polypeptide level of MEK: rarely differed
anti-phosphorylated MEK antibody, concentration-dependent
  MEK phosphorylation (pMEK): significantly decreased
